Results: article PMC11184876
Results are given in words; binding and its absence hold for the method and conditions named. Binding seen in cells or lysates may run through a third protein. Some entries that bind do so weakly or less than the wild type.

Sequences of proteins named here, by UniProt entry; tags and fusion partners are left off.
UniProt Q09666: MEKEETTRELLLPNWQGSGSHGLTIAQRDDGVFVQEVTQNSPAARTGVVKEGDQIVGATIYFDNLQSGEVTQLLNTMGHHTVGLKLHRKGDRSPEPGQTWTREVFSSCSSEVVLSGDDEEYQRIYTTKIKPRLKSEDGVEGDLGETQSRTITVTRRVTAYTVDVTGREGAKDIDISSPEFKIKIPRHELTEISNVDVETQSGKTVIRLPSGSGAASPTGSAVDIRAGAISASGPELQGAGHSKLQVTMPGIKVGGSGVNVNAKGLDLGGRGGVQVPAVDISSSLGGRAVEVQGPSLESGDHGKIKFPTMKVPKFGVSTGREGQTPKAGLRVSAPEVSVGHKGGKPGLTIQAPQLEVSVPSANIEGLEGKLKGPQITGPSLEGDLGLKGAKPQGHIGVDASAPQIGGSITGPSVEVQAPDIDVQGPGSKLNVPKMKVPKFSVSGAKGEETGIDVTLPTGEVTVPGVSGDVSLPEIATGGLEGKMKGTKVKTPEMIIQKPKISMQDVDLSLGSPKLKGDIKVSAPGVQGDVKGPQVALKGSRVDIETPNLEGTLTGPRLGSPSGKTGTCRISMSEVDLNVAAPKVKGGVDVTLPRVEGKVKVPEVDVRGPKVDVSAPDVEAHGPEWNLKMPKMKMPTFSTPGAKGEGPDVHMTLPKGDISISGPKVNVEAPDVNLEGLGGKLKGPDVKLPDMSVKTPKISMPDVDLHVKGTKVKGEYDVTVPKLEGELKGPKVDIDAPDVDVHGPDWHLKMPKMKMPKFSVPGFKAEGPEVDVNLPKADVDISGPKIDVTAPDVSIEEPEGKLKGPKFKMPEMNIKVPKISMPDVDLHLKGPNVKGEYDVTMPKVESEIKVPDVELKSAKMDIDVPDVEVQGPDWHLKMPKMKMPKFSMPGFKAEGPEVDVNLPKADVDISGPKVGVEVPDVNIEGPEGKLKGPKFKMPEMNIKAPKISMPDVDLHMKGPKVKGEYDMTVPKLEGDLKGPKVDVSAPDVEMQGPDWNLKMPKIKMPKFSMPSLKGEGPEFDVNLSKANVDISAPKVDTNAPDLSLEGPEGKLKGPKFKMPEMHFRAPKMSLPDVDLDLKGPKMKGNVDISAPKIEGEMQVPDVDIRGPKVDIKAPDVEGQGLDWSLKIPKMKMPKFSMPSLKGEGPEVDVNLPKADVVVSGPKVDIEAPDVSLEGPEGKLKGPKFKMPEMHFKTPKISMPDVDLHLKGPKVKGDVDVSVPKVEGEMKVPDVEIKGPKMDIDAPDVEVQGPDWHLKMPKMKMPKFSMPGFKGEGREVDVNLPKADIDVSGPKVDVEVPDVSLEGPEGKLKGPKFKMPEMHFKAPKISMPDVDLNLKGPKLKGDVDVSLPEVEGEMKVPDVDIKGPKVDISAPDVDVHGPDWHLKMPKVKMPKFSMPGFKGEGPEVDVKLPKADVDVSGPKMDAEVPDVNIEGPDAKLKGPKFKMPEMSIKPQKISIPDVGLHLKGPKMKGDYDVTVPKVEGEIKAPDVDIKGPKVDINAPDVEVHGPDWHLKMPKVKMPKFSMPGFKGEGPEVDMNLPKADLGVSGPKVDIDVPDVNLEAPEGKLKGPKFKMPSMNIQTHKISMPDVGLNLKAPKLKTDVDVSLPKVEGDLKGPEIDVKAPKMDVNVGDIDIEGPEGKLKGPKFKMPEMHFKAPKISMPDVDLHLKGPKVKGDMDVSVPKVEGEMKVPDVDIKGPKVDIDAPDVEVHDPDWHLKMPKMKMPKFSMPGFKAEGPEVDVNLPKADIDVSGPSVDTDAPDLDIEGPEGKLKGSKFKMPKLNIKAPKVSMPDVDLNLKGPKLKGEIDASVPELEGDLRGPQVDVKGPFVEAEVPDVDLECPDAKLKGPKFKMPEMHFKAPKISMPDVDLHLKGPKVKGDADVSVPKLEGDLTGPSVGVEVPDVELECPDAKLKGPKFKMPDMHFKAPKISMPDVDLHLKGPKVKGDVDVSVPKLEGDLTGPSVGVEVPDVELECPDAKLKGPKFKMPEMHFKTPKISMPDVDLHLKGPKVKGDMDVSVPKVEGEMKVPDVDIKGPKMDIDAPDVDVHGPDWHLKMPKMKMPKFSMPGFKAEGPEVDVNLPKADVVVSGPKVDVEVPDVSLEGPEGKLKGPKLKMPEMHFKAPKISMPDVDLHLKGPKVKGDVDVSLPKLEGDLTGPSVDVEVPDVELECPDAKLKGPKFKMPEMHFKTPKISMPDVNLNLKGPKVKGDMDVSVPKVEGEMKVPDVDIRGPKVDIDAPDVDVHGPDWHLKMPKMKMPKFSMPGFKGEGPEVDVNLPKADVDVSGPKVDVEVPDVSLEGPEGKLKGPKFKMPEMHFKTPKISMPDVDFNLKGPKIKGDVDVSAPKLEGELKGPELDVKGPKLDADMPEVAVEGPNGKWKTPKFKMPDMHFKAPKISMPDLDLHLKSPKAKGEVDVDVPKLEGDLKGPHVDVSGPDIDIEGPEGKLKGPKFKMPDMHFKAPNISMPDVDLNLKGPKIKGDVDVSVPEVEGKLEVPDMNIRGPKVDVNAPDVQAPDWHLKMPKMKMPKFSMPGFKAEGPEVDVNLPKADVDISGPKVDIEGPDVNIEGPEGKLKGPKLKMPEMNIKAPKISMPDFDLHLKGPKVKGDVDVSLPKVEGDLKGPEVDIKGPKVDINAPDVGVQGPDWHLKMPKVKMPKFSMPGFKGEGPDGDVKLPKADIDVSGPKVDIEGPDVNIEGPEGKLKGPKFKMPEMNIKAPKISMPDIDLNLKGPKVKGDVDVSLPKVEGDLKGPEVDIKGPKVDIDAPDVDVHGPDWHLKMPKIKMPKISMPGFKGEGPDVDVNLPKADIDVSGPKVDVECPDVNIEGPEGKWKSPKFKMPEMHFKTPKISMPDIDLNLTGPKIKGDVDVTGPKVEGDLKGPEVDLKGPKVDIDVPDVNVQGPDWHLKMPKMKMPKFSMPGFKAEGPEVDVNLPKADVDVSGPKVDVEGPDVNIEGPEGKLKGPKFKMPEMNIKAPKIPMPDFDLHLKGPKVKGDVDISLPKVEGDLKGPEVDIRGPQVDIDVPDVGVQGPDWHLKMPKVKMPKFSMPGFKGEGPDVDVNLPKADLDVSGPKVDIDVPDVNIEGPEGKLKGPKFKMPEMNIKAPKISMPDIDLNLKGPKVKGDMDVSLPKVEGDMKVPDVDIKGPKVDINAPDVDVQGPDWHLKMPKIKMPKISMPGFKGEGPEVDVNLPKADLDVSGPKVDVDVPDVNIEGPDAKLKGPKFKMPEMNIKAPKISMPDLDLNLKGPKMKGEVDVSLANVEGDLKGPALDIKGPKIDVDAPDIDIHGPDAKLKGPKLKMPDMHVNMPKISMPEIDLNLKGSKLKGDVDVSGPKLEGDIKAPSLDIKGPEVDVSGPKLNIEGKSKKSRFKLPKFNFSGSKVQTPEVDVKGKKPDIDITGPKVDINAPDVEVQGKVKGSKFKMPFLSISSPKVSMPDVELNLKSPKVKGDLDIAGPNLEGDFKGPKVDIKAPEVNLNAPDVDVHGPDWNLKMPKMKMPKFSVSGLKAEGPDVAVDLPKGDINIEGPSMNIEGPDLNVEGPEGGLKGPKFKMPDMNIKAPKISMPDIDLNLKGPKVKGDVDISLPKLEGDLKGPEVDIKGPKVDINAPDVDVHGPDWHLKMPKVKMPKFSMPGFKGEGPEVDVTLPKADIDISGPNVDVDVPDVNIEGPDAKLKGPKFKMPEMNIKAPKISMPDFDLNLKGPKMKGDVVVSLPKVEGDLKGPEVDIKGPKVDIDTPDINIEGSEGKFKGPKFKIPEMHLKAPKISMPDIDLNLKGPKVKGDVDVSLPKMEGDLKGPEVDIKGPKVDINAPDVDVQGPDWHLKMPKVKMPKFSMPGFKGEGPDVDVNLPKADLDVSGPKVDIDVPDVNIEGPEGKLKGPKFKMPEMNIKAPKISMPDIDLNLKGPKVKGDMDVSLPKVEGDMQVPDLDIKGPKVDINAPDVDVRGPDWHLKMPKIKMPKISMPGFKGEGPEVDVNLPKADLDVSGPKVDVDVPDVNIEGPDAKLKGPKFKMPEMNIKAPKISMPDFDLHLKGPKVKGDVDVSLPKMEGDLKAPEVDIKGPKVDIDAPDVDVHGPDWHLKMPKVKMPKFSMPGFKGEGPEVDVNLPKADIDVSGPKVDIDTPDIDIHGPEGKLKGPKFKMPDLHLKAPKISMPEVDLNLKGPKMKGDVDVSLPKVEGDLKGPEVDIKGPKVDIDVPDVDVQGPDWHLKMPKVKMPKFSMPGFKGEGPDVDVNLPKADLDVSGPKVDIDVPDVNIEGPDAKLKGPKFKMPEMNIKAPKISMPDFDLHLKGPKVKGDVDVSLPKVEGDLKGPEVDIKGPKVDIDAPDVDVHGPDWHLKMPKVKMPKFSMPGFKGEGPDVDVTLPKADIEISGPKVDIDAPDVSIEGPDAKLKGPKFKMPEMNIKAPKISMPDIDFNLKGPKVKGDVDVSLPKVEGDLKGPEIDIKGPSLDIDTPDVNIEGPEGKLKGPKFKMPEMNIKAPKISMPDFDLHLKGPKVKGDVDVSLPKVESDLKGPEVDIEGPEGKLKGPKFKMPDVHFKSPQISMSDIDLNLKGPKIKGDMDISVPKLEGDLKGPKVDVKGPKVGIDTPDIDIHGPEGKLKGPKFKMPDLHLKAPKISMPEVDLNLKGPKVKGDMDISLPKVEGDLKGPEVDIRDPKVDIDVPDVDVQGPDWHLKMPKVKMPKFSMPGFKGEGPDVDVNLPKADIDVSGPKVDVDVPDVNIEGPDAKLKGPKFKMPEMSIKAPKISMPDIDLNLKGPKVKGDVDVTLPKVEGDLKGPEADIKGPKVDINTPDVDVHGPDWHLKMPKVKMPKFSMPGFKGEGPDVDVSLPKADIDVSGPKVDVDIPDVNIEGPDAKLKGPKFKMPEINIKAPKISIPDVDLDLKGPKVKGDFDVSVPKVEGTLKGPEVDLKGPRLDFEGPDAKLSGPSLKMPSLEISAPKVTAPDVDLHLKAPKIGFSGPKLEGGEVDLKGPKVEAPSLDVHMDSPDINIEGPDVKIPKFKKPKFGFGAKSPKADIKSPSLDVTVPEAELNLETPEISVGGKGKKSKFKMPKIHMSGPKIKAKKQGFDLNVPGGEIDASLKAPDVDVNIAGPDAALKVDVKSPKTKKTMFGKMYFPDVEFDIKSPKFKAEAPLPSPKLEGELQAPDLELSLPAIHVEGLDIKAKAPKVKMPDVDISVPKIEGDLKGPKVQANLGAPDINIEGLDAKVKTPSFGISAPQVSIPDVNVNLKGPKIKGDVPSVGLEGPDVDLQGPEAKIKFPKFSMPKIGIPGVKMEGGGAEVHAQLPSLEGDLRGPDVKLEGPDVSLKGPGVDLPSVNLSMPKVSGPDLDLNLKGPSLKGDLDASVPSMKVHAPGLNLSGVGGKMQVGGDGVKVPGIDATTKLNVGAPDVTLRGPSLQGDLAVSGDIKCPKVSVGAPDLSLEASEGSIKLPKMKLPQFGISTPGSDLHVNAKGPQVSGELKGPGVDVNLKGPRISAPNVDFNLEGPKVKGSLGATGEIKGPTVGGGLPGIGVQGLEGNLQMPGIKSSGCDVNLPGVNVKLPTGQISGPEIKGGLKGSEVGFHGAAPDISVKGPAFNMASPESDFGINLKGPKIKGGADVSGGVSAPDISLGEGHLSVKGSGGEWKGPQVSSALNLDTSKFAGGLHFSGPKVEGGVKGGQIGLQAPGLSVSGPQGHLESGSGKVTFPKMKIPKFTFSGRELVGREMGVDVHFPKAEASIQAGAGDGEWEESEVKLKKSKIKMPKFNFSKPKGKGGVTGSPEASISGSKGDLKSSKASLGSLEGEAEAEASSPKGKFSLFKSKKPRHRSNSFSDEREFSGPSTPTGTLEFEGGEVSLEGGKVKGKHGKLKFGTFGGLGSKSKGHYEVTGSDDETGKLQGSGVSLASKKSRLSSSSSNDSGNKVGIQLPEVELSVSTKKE
UniProt Q14258: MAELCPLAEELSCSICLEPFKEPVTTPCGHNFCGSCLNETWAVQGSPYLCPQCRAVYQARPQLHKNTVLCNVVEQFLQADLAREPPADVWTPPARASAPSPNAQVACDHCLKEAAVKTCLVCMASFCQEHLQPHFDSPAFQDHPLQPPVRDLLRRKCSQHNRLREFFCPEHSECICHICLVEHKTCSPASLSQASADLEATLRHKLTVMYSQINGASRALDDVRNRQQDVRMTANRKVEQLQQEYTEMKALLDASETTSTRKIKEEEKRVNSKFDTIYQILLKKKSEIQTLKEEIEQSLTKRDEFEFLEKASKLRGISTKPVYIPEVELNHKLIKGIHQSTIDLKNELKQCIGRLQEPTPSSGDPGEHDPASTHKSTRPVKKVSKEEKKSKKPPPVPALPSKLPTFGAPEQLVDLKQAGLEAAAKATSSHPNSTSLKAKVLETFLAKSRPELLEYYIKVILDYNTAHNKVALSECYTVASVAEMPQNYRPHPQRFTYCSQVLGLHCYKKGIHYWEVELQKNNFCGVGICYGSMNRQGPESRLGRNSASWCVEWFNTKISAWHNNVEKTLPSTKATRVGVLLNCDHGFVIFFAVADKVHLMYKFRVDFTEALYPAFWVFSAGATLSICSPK

Target: AHNAK protein (human (in human NSCLC cells)) (UniProt Q09666)
Test: co-IP; NSCLC cell lysates incubated with antibodies and magnetic beads at 4 °C overnight, washed with cell lysis buffer, eluate analysed by western blot; also done after circ6834 overexpression (binding enhanced)

- binding: binds
Substance: TRIM25 (from UniProt Q14258 1-630) (enzyme)
